Data source: PubChem BioAssay AID1259296 (Sanger Institute, 2017)
This is one part, drawn at random, of 160 deposited reagents. 45 of them (28%) count as active. 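Calls are per single siRNA duplex in CAR1 cells only; how the synergy score is calculated is not stated.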 Reagents against one gene are numbered here. Further read-outs or replicates are left out here. Reagent sequences are not shown. Not given: the amount of reagent, the time to read-out.

- Screen: 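Kinase knock-downs that boost killing by anchor drugs in colorectal cancer cells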 (follow-up of hits)
- System: CAR1 human colorectal cancer cells
- Knock-down reagent: single siRNA against human genes
- Challenge: anchor drugs BYL719 at 1 µM, cetuximab at 5 µg/ml or trametinib at 10 nM, or DMSO vehicle, added a day after transfection
- Read-out: 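Viability as a fraction of control pool 2 (non-targeting), replicate mean; for every anchor drug, a synergy score comparing combined effect with drug and siRNA individually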
- Direction: synergy with BYL719 and synergy with cetuximab and synergy with trametinib: higher = stronger synergy between knock-down and drug
- Active means: 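Called active if the synergy score with at least one anchor drug is above 0.10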

With CRIM1 #1, how do the results read?
synergy with BYL719: -0.0332; synergy with cetuximab: -0.0715; synergy with trametinib: -0.0201; activity call: inactive

For CRIM1 #2, how do the results read?
synergy with BYL719: -0.081; synergy with cetuximab: 0.00531; synergy with trametinib: 0; activity call: inactive

For CRIM1 #3, what was measured?
synergy with BYL719: 0.0507; synergy with cetuximab: -0.0156; synergy with trametinib: -0.146; activity call: inactive

Which result is listed for CRIM1 #4?
synergy with BYL719: 0.0737; synergy with cetuximab: 0.0622; synergy with trametinib: 0.0382; activity call: inactive

With IRAK1 #1, how do the results read?
synergy with BYL719: 0.0446; synergy with cetuximab: 0.0234; synergy with trametinib: 0.443; activity call: active

With IRAK1 #2, what was measured?
synergy with BYL719: 0.00387; synergy with cetuximab: -0.00239; synergy with trametinib: 0; activity call: inactive

For IRAK1 #3, how do the results read?
synergy with BYL719: 0.11; synergy with cetuximab: 0.0173; synergy with trametinib: 0.0219; activity call: active

For IRAK1 #4, what does the deposit list?
synergy with BYL719: 0.337; synergy with cetuximab: -0.0497; synergy with trametinib: 0.152; activity call: active

With PIK3CA #1, how do the results read?
synergy with BYL719: 0.0632; synergy with cetuximab: 0.0164; synergy with trametinib: 0.0614; activity call: inactive

What did the screen give for PIK3CA #2?
synergy with BYL719: -0.117; synergy with cetuximab: -0.0428; synergy with trametinib: 0.0902; activity call: inactive

What did the screen give for PIK3CA #3?
synergy with BYL719: 0.00287; synergy with cetuximab: -0.0674; synergy with trametinib: 0.0422; activity call: inactive

What did the screen give for PIK3CA #4?
synergy with BYL719: -0.118; synergy with cetuximab: -0.0639; synergy with trametinib: 0.000647; activity call: inactive

Quoted from the entries so far, 2 entries:
CRIM1 #1 — synergy with BYL719 = -0.0332; synergy with cetuximab = -0.0715; synergy with trametinib = -0.0201; activity call = inactive
CRIM1 #2 — synergy with BYL719 = -0.081; synergy with cetuximab = 0.00531; synergy with trametinib = 0; activity call = inactive

The listing continues.
With CDK6 #1, what was measured?
synergy with BYL719: 0.201; synergy with cetuximab: -0.0708; synergy with trametinib: 0.16; activity call: active

With CDK6 #2, how do the results read?
synergy with BYL719: 0.11; synergy with cetuximab: -0.00266; synergy with trametinib: 0.128; activity call: active

What is on record for CDK6 #3?
synergy with BYL719: -0.0522; synergy with cetuximab: -0.00483; synergy with trametinib: 0.164; activity call: active

How did the screen score CDK6 #4?
synergy with BYL719: 0.0746; synergy with cetuximab: 0.028; synergy with trametinib: 0.141; activity call: active

With PLK1 #1, what does the deposit list?
synergy with BYL719: -0.0238; synergy with cetuximab: -0.159; synergy with trametinib: 0.0272; activity call: inactive

What is on record for PLK1 #2?
synergy with BYL719: 0.143; synergy with cetuximab: 0.0267; synergy with trametinib: 0.0434; activity call: active

With PLK1 #3, how do the results read?
synergy with BYL719: 0.117; synergy with cetuximab: 0.0219; synergy with trametinib: 0.0869; activity call: active

Which result is listed for PLK1 #4?
synergy with BYL719: 0.0615; synergy with cetuximab: 0.0343; synergy with trametinib: 0.0241; activity call: inactive

With ACVR1 #1, what was measured?
synergy with BYL719: -0.0787; synergy with cetuximab: 0.0228; synergy with trametinib: 0.0433; activity call: inactive

How did the screen score ACVR1 #2?
synergy with BYL719: -0.068; synergy with cetuximab: -0.0924; synergy with trametinib: -0.017; activity call: inactive

For ACVR1 #3, how do the results read?
synergy with BYL719: -0.0653; synergy with cetuximab: -0.0439; synergy with trametinib: 0; activity call: inactive

What is on record for ACVR1 #4?
synergy with BYL719: 0.0463; synergy with cetuximab: -0.093; synergy with trametinib: 0.0974; activity call: inactive
